This note sets out measurements from the supplement of paper PMC12593923.

Holding throughout (assay): drug sensitivity score (DSS2, cytotoxicity, CellTox Green); higher = more cytotoxic / more sensitive; extreme values may be limits of the assay
Common to all, as to conditions: 72 h; doses 0.5, 1, 5 µM

Test [1] deals with Kuramochi.
The test system of test [2] is OVCAR4.
Test [3] concerns OVCAR3.

Structures are written as SMILES. Counter-ions that a name gives are not always drawn. Some well-known active drugs show little effect in this data set, so a weak value is uncertain.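 All three lines are high-grade serous ovarian cancer cells differing in chemosensitivity, with OVCAR3 described as the chemosensitive one. Toxicity was scaled between DMSO vehicle wells and fully lysed wells, the score derives from a fitted multi-dose response curve, and the authors counted a score above 5 as drug sensitivity.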

Regarding `CC1(C)[C@@H](O)CC[C@]2(C)[C@H]3C(=O)C=C4[C@H]5C[C@@](C)(C(=O)O)CC[C@]5(C)CC[C@@]4(C)[C@]3(C)CC[C@@H]12` [18α-Glycyrrhetinic acid], the drug sensitivity score in test [1], in test [2] and in test [3] was 0 DSS in each case.

For `Cn1c(O)c(C2=c3ccccc3=NC2=O)c2ccccc21` [Meisoindigo], the drug sensitivity score in test [1], in test [2] and in test [3] was 0 DSS each time.

As for `CC(C)OC(=O)C(C)(C)Oc1ccc(C(=O)c2ccc(Cl)cc2)cc1` [Fenofibrate], the drug sensitivity score in test [1], in test [2] and in test [3] was 0 DSS in each case.

In the case of `CC(=O)n1c2c(c3ccccc31)CCCC2=O` [MS7972], the drug sensitivity score in test [1], in test [2] and in test [3] was 0 DSS in each case.

For the molecule `CCOC(=O)CCC(=O)O[C@H]1[C@H](O[C@@H]2[C@@H](C)[C@H](O[C@H]3C[C@@](C)(OC)[C@@H](O)[C@H](C)O3)[C@@H](C)C(=O)O[C@H](CC)[C@@](C)(O)[C@H](O)[C@@H](C)C(=O)[C@H](C)C[C@@]2(C)O)O[C@H](C)C[C@@H]1N(C)C` [Erythromycin Ethylsuccinate], the drug sensitivity score in test [1], in test [2] and in test [3] was 0 DSS in each case.

Consider `CC#CCn1c(N2CCC[C@@H](N)C2)nc2c1c(=O)n(Cc1nc(C)c3ccccc3n1)c(=O)n2C` [Linagliptin], for which the drug sensitivity score in test [1], in test [2] and in test [3] was 0 DSS each time.

With `O=C(/C=C/c1cccc(S(=O)(=O)Nc2ccccc2)c1)NO` [Belinostat], the drug sensitivity score stood at 1.7 DSS in test [1], 1.5 DSS in test [2] and 2.9 DSS in test [3].

`COC(=O)C[C@](O)(CCCC(C)(C)O)C(=O)O[C@@H]1C(OC)=C[C@]23CCCN2CCc2cc4c(cc2[C@H]13)OCO4` [Homoharringtonine]: the drug sensitivity score in test [1], in test [2] and in test [3] was 0 DSS each time.

For the molecule `Cn1cnc2c(F)c(Nc3ccc(Br)cc3Cl)c(C(=O)NOCCO)cc21` [Selumetinib (sulfate)], the drug sensitivity score in test [1], in test [2] and in test [3] was 0 DSS in each case.

For `O=C(c1ccc(F)c(F)c1Nc1ccc(I)cc1F)N1CC(O)([C@@H]2CCCCN2)C1` [Cobimetinib], the drug sensitivity score in test [1], in test [2] and in test [3] was 0 DSS in each case.

Take `COc1ccccc1OCCNCC(O)COc1cccc2[nH]c3ccccc3c12` (stereo not given) [Carvedilol]: the drug sensitivity score in test [1], in test [2] and in test [3] was 0 DSS each time.

As for `O=C(O)Cc1ccccc1Nc1c(Cl)cccc1Cl` [Diclofenac (Sodium)], the drug sensitivity score in test [1], in test [2] and in test [3] was 0 DSS each time.

Consider `CCOC(=O)/C=C(C)/C=C/C=C(C)/C=C/c1c(C)cc(OC)c(C)c1C` [Etretinate], for which the drug sensitivity score in test [1], in test [2] and in test [3] was 0 DSS each time.

As to `COc1ccc(C2=N[C@@H](c3ccc(Cl)cc3)[C@@H](c3ccc(Cl)cc3)N2C(=O)N2CCNC(=O)C2)c(OC(C)C)c1` [Nutlin-3], the drug sensitivity score in test [1], in test [2] and in test [3] was 0 DSS throughout.

On to `S=c1nc[nH]c2nc[nH]c12` [6-Mercaptopurine], for which the drug sensitivity score in test [1], in test [2] and in test [3] was 0 DSS throughout.

Consider `Nc1ccc(S(=O)(=O)NC(=O)c2ccccc2)cc1` [Sulfabenzamide], for which the drug sensitivity score in test [1], in test [2] and in test [3] was 0 DSS throughout.

As for `O=C(Nc1cnn2ccc(N3CCC[C@@H]3c3cc(F)ccc3F)nc12)N1CC[C@H](O)C1` [Larotrectinib sulfate], the drug sensitivity score in test [1], in test [2] and in test [3] was 0 DSS in each case.

On to `O=S(=O)(O)c1cc(O)ccc1O` [Calcium dobesilate], for which the drug sensitivity score in test [1], in test [2] and in test [3] was 0 DSS throughout.

In the case of `COc1ccc(C[C@@H]2c3cc(OC)c(OC)cc3CC[N@+]2(C)CCC(=O)OCCCCCOC(=O)CC[N@@+]2(C)CCc3cc(OC)c(OC)cc3[C@H]2Cc2ccc(OC)c(OC)c2)cc1OC` [Cisatracurium (besylate)], the drug sensitivity score in test [1], in test [2] and in test [3] was 0 DSS in each case.

For `c1ccc2c(CCNc3ccc(Nc4ccncc4)cc3)c[nH]c2c1` [Serdemetan], the drug sensitivity score in test [1], in test [2] and in test [3] was 0 DSS each time.

Regarding `Nc1cccc2c1CN(C1CCC(=O)NC1=O)C2=O` (stereo not given) [Lenalidomide (hemihydrate)], the drug sensitivity score in test [1] was 0 DSS; in test [2], 0 DSS; in test [3] it was 2.6 DSS.

`Nc1c(Br)cc(Br)cc1CN[C@H]1CC[C@H](O)CC1` [Ambroxol]: the drug sensitivity score in test [1], in test [2] and in test [3] was 0 DSS in each case.

On to `NC(=O)c1cccc2cn(-c3ccc([C@@H]4CCCNC4)cc3)nc12` [Niraparib (tosylate)], for which the drug sensitivity score in test [1], in test [2] and in test [3] was 0 DSS throughout.

On to `CC(=O)O[C@H]1C(=O)[C@@]2(C)[C@H]([C@H](OC(=O)c3ccccc3)[C@]3(O)C[C@H](OC(=O)[C@H](O)[C@@H](NC(=O)c4ccccc4)c4ccccc4)C(C)=C1C3(C)C)[C@]1(OC(C)=O)CO[C@@H]1C[C@@H]2O` [Paclitaxel], for which the drug sensitivity score in test [1] was 0.8 DSS; in test [2], 0 DSS; in test [3], 1.6 DSS.

With `COc1ccc([C@@H]2CC(=O)c3c(O)cc(O[C@@H]4O[C@H](CO[C@@H]5O[C@@H](C)[C@H](O)[C@@H](O)[C@H]5O)[C@@H](O)[C@H](O)[C@H]4O)cc3O2)cc1O` [Hesperidin], the drug sensitivity score in test [1], in test [2] and in test [3] was 0 DSS each time.

In the case of `CSc1ccc2c(c1)N(CCC1CCCCN1C)c1ccccc1S2` (stereo not given) [Thioridazine (hydrochloride)], the drug sensitivity score in test [1], in test [2] and in test [3] was 0 DSS each time.

On to `Cc1ncc(CNC(=O)N(CCCl)N=O)c(N)n1` [Nimustine (hydrochloride)], for which the drug sensitivity score in test [1], in test [2] and in test [3] was 0 DSS throughout.

Take `CC(C)(C)c1ccc(C(O)CCCN2CCC(C(O)(c3ccccc3)c3ccccc3)CC2)cc1` (stereo not given) [Terfenadine]: the drug sensitivity score stood at 0.8 DSS in test [1], 1.3 DSS in test [2] and 0 DSS in test [3].

For the molecule `Cc1c(O)c(=O)ccn1C` [Deferiprone], the drug sensitivity score in test [1], in test [2] and in test [3] was 0 DSS throughout.

For the molecule `Cn1nnc2c(C(N)=O)ncn2c1=O` [Temozolomide], the drug sensitivity score in test [1], in test [2] and in test [3] was 0 DSS each time.

`CS(=O)(=O)c1ccc(C(=O)Nc2ccc(Cl)c(-c3ccccn3)c2)c(Cl)c1` [Vismodegib]: the values for the drug sensitivity score in test [1], in test [2] and in test [3] were 0 DSS, 0 DSS and 2.7 DSS, respectively.

For `C#Cc1cccc(Nc2ncnc3cc(OCCOC)c(OCCOC)cc23)c1` [Erlotinib (Hydrochloride)], the drug sensitivity score in test [1], in test [2] and in test [3] was 0 DSS in each case.

Take `C[Se]CC[C@H](N)C(=O)O` [L-SelenoMethionine]: the drug sensitivity score in test [1], in test [2] and in test [3] was 0 DSS throughout.

Take `CC(C)(C(=O)c1cccnc1)c1cccnc1` [Metyrapone]: the drug sensitivity score in test [1], in test [2] and in test [3] was 0 DSS in each case.

On to `O=S(=O)(c1cccc2c(O)nccc12)N1CCCNCC1` [Hydroxyfasudil], for which the drug sensitivity score in test [1], in test [2] and in test [3] was 0 DSS throughout.

Take `COc1cc(OC)cc(N(CCNC(C)C)c2ccc3ncc(-c4cnn(C)c4)nc3c2)c1` [Erdafitinib]: the results for the drug sensitivity score in test [1], in test [2] and in test [3] were 0 DSS, 0 DSS and 0.3 DSS, respectively.

`O=C1CCc2cc(OCCCCc3nnnn3C3CCCCC3)ccc2N1` [Cilostazol]: the drug sensitivity score in test [1], in test [2] and in test [3] was 0 DSS each time.

Consider `CC[C@H](Nc1ncnc2[nH]cnc12)c1nc2cccc(F)c2c(=O)n1-c1ccccc1` [Idelalisib], for which the drug sensitivity score in test [1] worked out at 4 DSS; in test [2] it was 1.1 DSS; in test [3] it was 5.8 DSS.

With `CC(C)(C)c1nc(-c2cccc(NS(=O)(=O)c3c(F)cccc3F)c2F)c(-c2ccnc(N)n2)s1` [Dabrafenib (Mesylate)], the drug sensitivity score in test [1], in test [2] and in test [3] was 0 DSS in each case.

In the case of `C[C@]12CC[C@@H]3c4ccc(O)cc4C[C@@H](CCCCCCCCC[S+]([O-])CCCC(F)(F)C(F)(F)F)[C@H]3[C@@H]1CC[C@@H]2O` (stereo not given in full) [Fulvestrant], the drug sensitivity score in test [1], in test [2] and in test [3] was 0 DSS in each case.
